Patent US8796244B2, “Imidazopyridine derivatives as inhibitors of receptor tyrosine kinases” (Astex Therapeutics Ltd, priority 2008, dated 2014)

Legend:
[1] = test system: parental wild-type Ba/F3 cells; assay: Ba/F3 (WT) cell proliferation assay (Alamar Blue); assay type: cell-based; conditions: Mus musculus, BaF3, read-out: BaF3 WT prolif, % inhibition

`O=C(NCC(F)(F)F)Nc1cccc(-c2cnc3cc(-c4nnc(CCO)s4)ccn23)c1` [Compound 263] gave an inhibition at 1 µM [1] of 21% and a melting point of 230 °C.
